Data taken from PubChem BioAssay AID624297 (National Center for Advancing Translational Sciences (NCATS), 2012).
Hit rate of the full screen: of about 340,000 compounds, about 6,200 (1.8%) were called active. Inconclusive results, whose numbers are uncertain, are shown with a selection of clear calls. Calls come from the whole dose curve; as a rule, active = well fitted activation curve with a large enough effect; inconclusive = small, poorly fitted or top-dose-only effect; inactive = no such curve, though single readings can be large or run the other way. Potencies of inconclusive entries are doubtful fits and often do not repeat.

Experiment: A quantitative high throughput screen for small molecules that induce DNA re-replication in SW480 colon adenocarcinoma cells. For re-replication activation: % of control where 0% means no effect. Note: nearly all actives have a fitted effect of over 55% in size.
Settings: Hoechst DNA content imaging, 48 h; re-replication activation: at 46.1 µM (top of the series) unless noted
Procedure, shortened: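 Treated cells incubate 48 hr (37 C, 5% CO2), are stained 40 min with Hoechst, and nuclear fluorescence is enumerated; a rise in nuclei with high DNA signal marks re-replication.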
Potency is the fitted concentration of half-maximal effect.

Compound	Potency	re-replication activation
O=C(NCCc1ccccc1)C1CCCN(C(=O)Nc2ccc(F)cc2)C1 (stereo not drawn)	inactive	
COc1ccc(CCC(C)NCc2cc(OC)cc(OC)c2)cc1 (stereo not drawn)		inconclusive: 45.7% [activator]
O=C(COc1ncnc2ccc(Br)cc12)NCc1ccco1	inconclusive: 29.1 µM [activator, single point]	
CC1CCCCN1CCNC(=O)c1ccc2c(=O)n(Cc3ccc(Cl)cc3)c(=S)[nH]c2c1 (stereo not drawn)	inconclusive: 29.1 µM [activator, single point]	
Cc1c(C(=O)OC2CCC(C)CC2)[nH]c2c1C(=O)CCC2 (stereo not drawn)	inconclusive: 20.6 µM [activator, partial curve, poor fit]	
CCOC(=O)c1c(-c2ccccc2)csc1NC(=O)C(C)NCc1ccco1 (stereo not drawn)	inconclusive: 14.6 µM [activator, partial curve, poor fit]	
CC(C)c1ccc(C(C(=O)NC2CCCCC2)N(C(=O)c2csnn2)C2CC2)cc1 (stereo not drawn)	inconclusive: 23.1 µM [activator, single point]	
CC(C)[C@H](NC(=O)c1ccccc1F)C(=O)NC1CCCCC1	inconclusive: 5.8 µM [activator, single point]	
COc1ccc(/C=C2\COc3ccccc3C2=O)c(OC)c1	inconclusive: 20.6 µM [activator, single point]	
CC1=C(C(=O)OCc2ccccc2)C(c2ccc3ccccc3c2)NC(=O)N1CCCCCC(=O)O (stereo not drawn)	inconclusive: 0.146 µM [activator, full curve, poor fit]	
CCCCOP(=O)(OCCCC)C1(C)CC(=O)CC(C)(C)C1 (stereo not drawn)	inactive	
C=CC(=O)Nc1cccc(N(C)c2ccnc(Nc3ccc(N4CCN(C)CC4)cc3)n2)c1	inconclusive: 29.1 µM [activator, single point]	
COc1ccc(NC(=O)NCCN2CCN(c3cc(OC)ccc3OC)CC2)cc1	inactive	
COc1ccc2cc3c(N)nn(C(=O)c4cccc(F)c4)c3nc2c1	inconclusive: 6.51 µM [activator, single point]	
CC1=C(C#N)C(C)C2=C(CC(C)(C)CC2=O)N1 (stereo not drawn)		inactive: -1.96% [at 9.22 µM]
CC(=O)Nc1ccc2c(c1)Cc1cc(N3C(=O)C=CC3=O)ccc1-2	active: 13 µM	
O=C(COc1ccccc1/C=C1\SC(=S)NC1=O)Nc1ccc(F)cc1	inconclusive: 29.1 µM [activator, single point]	
Cc1ccc(C)c(NC(=O)c2cc[n+](C)cc2)c1	inactive	
O=C(c1cc(C2CC2)nn1-c1ccccc1)N1CCN(S(=O)(=O)c2ccccc2)CC1	inconclusive: 23.1 µM [activator, single point]	
CC(=O)Nc1cc[n+](CC(=O)c2ccc(Cl)cc2)cc1	inactive	
Cc1ccc(Nc2nc(N)nc(COC(=O)c3ccc(Br)o3)n2)cc1	inactive	
COc1ccc(NS(=O)(=O)c2cc(NC(=O)[C@@H](NC(N)=O)C(C)C)ccc2C)cc1	inconclusive: 25.9 µM [activator, partial curve, poor fit]	
Cc1nc(-c2ccc(S(=O)(=O)Oc3ccc(Cl)cc3Cl)s2)cs1	inconclusive: 20.6 µM [activator, single point]	

Three structures already listed, arranged by heavy-atom count, low to high.
Compound	Potency	re-replication activation
Cc1c(C(=O)OC2CCC(C)CC2)[nH]c2c1C(=O)CCC2 (stereo not drawn)	inconclusive: 20.6 µM [activator, partial curve, poor fit]	
Cc1ccc(Nc2nc(N)nc(COC(=O)c3ccc(Br)o3)n2)cc1	inactive	
C=CC(=O)Nc1cccc(N(C)c2ccnc(Nc3ccc(N4CCN(C)CC4)cc3)n2)c1	inconclusive: 29.1 µM [activator, single point]	

Additional entries follow:

Compound	Potency	re-replication activation
O=C(c1ccncc1)N(Cc1cc2ccccc2[nH]c1=O)C1CCCCC1	inactive	
C=C(C(=O)c1ccccc1)C(C)C(=C)C(=O)c1ccccc1	active: 7.31 µM	
Cc1ccc(N/C(C(Cl)=C(Cl)Cl)=C(/Cl)[N+](=O)[O-])c(C)c1	inconclusive: 1.64 µM [activator, partial curve, poor fit]	
CC(=NNC(=S)N1CCN(c2ccccn2)CC1)c1nccs1	inconclusive: 0.082 µM [activator, full curve, poor fit]	
CCc1ccc(N2C(=O)CN(Cc3cccs3)C2=S)cc1	inactive	
CCc1cc2c(=O)c(-c3cnn(-c4ccccc4)c3)c(C)oc2cc1OCC(=O)Nc1cccc(C)c1	inconclusive: 3.55 µM [activator, single point]	
COc1ccc(-c2n[nH]c(C)c2-c2cnn(-c3ccccc3)c2)c(O)c1	inconclusive: 8.2 µM [activator, partial curve, poor fit]	
CCC1CCCCN1CCCNC(=O)C1CCCN(c2nn3c(=O)cc(C)nc3s2)C1 (stereo not drawn)	inconclusive: 29.1 µM [activator, single point]	
O=C(NC1CCN(C(=S)Nc2ccccc2Cl)CC1)C1CCCCC1	inactive	
S=C(N/N=C/c1ccc(Br)cc1)N1CCCCC1	inconclusive: 29.1 µM [activator, single point]	
CS(=O)(=O)c1ccc(C(=O)OCC(=O)NC(=O)C2CCCCC2)cc1[N+](=O)[O-]	inconclusive: 0.116 µM [activator, partial curve, poor fit]	
CC(=O)c1ccc(NC(=O)Cn2cnc(S(=O)(=O)N3CCc4ccccc43)c2)cc1	inconclusive: 2 µM [activator, full curve]	
NC(N)=NC(=O)c1nc(Cl)c(N2CCCCCC2)nc1N	inactive	
COc1ccc(N=Cc2sc(O)c3ccccc23)cc1	inconclusive: 31.6 µM [activator, partial curve, poor fit]	
COC(=O)/C(=C(/F)Sc1cc(C)c(O)c(C)c1)C(F)(F)F	inconclusive: 32.6 µM [activator, partial curve, poor fit]	
Cn1nccc1C(=O)NC1CCCc2c1cnn2-c1ccc(C(C)(C)C)cc1 (stereo not drawn)	inconclusive: 20.6 µM [activator, partial curve, poor fit]	
COc1ccc(NS(=O)(=O)c2ccc(N/N=C(\C)c3ccncc3)c([N+](=O)[O-])c2)cc1	inconclusive: 0.0058 µM [activator, full curve, poor fit]	
O=S(=O)(c1ccc(N2CCOCC2)c(Cl)c1)N1CCOCC1	inactive	
C=CCC1CCCCC12NC(=O)N(c1ccccc1)N2 (stereo not drawn)	inconclusive: 20.6 µM [activator, single point]	
O=C(NCCCn1ccnc1)c1cc2nc(-c3ccc(Br)cc3)cc(C(F)(F)F)n2n1	inconclusive: 29.1 µM [activator, single point]	
CCOc1ccc(OCC)c(NC(=O)C2C3C=CC(O3)C2C(=O)NCc2ccco2)c1 (stereo not drawn)	inactive	
CCOc1ccc(NC(=S)N2CCN(c3ccc(N4CCOCC4)nn3)CC2)cc1	inconclusive: 3.66 µM [activator, single point]	
CS(=O)(=O)N(CC(=O)Nc1ccccc1F)C1CCCCC1	inconclusive: 0.517 µM [activator, full curve, poor fit]	

Compound	Potency	re-replication activation
COc1ccc(NS(=O)(=O)c2ccc3oc(SC(C)C(N)=O)nc3c2)cc1 (stereo not drawn)	inactive	
CCc1cc2c(=O)oc(-c3ccc(Br)cc3)nc2s1	inactive	
Cc1ccc(-c2cc3nc(-c4ccccc4)cc(N4CCOCC4)n3n2)cc1	inconclusive: 23.1 µM [activator, partial curve, poor fit]	
CN1CCN(c2ncnc3c2c(-c2ccccc2)cn3-c2ccc(F)cc2)CC1	inconclusive: 18.4 µM [activator, single point]	
COc1ccc(OC)c(/C(O)=C/C(=O)C(=O)Nc2cc(C)cc(C)c2)c1	inconclusive: 25.9 µM [activator, single point]	
CC(=O)c1ccc(N2CCN(S(=O)(=O)c3ccc4c(c3)NC(=O)CO4)CC2)cc1	inconclusive: 1.3 µM [activator, full curve, poor fit]	
O=C(Nc1ccc(N2CCN(C(=O)C3CC3)CC2)cc1)c1cccs1	inconclusive: 29.1 µM [activator, partial curve, poor fit]	
CCCn1c(SCC(=O)N2CC(=O)Nc3ccccc32)n[nH]c1=O	inactive	
CC1Nc2ncnc(N3CCc4ccccc4C3)c2N(Cc2ccc(Br)cc2)C1=O (stereo not drawn)	inconclusive: 16.4 µM [activator, single point]	
CCO[C@H]1OC(C(=O)Nc2ccccc2)=C[C@@H](c2ccc(Br)cc2)[C@@H]1CCCO	inconclusive: 0.651 µM [activator, single point]	
O=C(NC(O)C(=O)c1ccccc1)c1ccccn1 (stereo not drawn)	inactive	
O=C1NCCN(CC2CCN(CC3CCCC3)CC2)C1=O	inconclusive: 0.13 µM [activator, full curve, poor fit]	
O=[N+]([O-])c1ccc(Sc2nccn2Cc2ccccc2)c([N+](=O)[O-])c1	inconclusive: 29.1 µM [activator, single point]	
COc1ccc(/C=C/C(=O)N2CCCc3ccccc32)c(OC)c1	inconclusive: 29.1 µM [activator, single point]	
C[C@]12CC[C@H](O)CC1=CCC1C2CC[C@@]2(C)C1CC[C@@H]2NC(=O)CCC(=O)O (stereo partly drawn)	inactive	
Cc1cc(C(=O)CSc2ccc3c(c2)OCCO3)c(C)n1C1CC1	inactive	
Oc1[nH]c2c(Cl)cc(Cl)cc2c1N=NC(=S)NCC1CCCO1 (stereo not drawn)	inactive	
Cc1cc(C(=O)c2ccc(Cl)cc2)c(NC(=O)CCl)s1	inconclusive: 29.1 µM [activator, single point]	
CC(=O)Nc1ccc(S(=O)(=O)NC2C3(C)CCC(C3)C2(C)C)cc1 (stereo not drawn)	inconclusive: 16.4 µM [activator, single point]	
Cc1ccc(C(=O)c2oc3ccc(Cl)cc3c2NC(=O)CN2CCN(C)CC2)cc1		inconclusive: 47.2% [activator]
C=CCNC(=O)/C(C#N)=C/c1cc(Br)ccc1OC	inconclusive: 23.1 µM [activator, single point]	
C/C(=C\C(=O)c1ccc(Br)cc1)Nc1ccc(Cl)cc1	inactive	
